Data: paper doi:10.1101/2021.03.25.437056
No constants are given. Whether binding was seen depends on the method and setting. In cells and extracts the contact can be indirect. Binding can be weak; no strength is given.

Molecular target: Homer1a (mouse (endogenous in inferior olive tissue))
Test: co-IP

B1: Homer1 (protein, UniProt Q9Z2Y3 1-366)
chain: MGEQPIFSTRAHVFQIDPNTKKNWVPTSKHAVTVSYFYDSTRNVYRIISLDGSKAIINSTITPNMTFTKTSQKFGQWADSRANTVYGLGFSSEHHLSKFAEKFQEFKEAARLAKEKSQEKMELTSTPSQESAGGDLQSPLTPESINGTDDERTPDVTQNSEPRAEPTQNALPFPHSAGDRTQALSHASSAISKHWEAELATLKGNNAKLTAALLESTANVKQWKQQLAAYQEEAERLHKRVTELECVSSQANAVHSHKTELNQTVQELEETLKVKEEEIERLKQEIDNARELQEQRDSLTQKLQEVEIRNKDLEGQLSDLEQRLEKSQNEQEAFRSNLKTLLEILDGKIFELTELRDNLAKLLECS
binding: binds
